Results of single-concentration screens

Source: ChEMBL document CHEMBL3988442, “University of Dundee, Small-Polar-MMV Screening Library” (2021).

Results are given as percent effect.
The controls that fix the scale are not given in the record; negative values are as filed.
The compounds are a random part of those screened.
Two or more numbers in one place are separate tests of the same structure; such repeats can differ widely.

A: 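Phenotypic screen: M. tuberculosis growth, cholesterol and DPPC medium, 4 days; the read-out is not stated. Tested at 50 µM. Higher reads as more growth inhibition (inferred: compounds with an IC50 in retests scored well above the rest). About 69,000 compounds were tested under these conditions; 0.54% (about 370) showed 50% or more at least once.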
B: 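Growth of Mycobacterium tuberculosis over 3 days (7H9 medium with glucose and tyloxapol); the read-out is not stated. Concentration: 50 µM. Higher reads as more growth inhibition (inferred: compounds with an IC50 in retests scored well above the rest). Of about 69,000 compounds tested this way, about 760 (1.1%) reached 50% or more in at least one test.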

{"compound": "CC(=O)N(C)CC(=O)NCC1(c2c(F)cccc2F)CCCC1", "A": 2.501, "B": -6.127}
{"compound": "[H][C@]1([C@H](O)c2ccc(NC(=O)COC)cc2)COCC(=O)N1C", "A": 5.439, "B": "20.07 and 1.533"}
{"compound": "Cc1cc(NC(=O)CN2CCCC(Cn3cncn3)C2)on1", "stereo": "configuration not stated", "A": 13.33, "B": 18.63}
{"compound": "CCC[C@H]1CN(c2cncc(C(=O)N(C)C)n2)C[C@@H]1N(C)C", "A": 15.98, "B": 11.22}
{"compound": "CCc1nc(C)ncc1C(=O)N1CCN(CC)c2ccccc21", "A": 15.41, "B": -17.51}
{"compound": "Cc1n[nH]c(C2CN(CC(=O)NCCc3ccccc3)CCO2)n1", "stereo": "configuration not stated", "A": -24.88, "B": -27.21}
{"compound": "Cc1[nH]c(=O)[nH]c(=O)c1CN1CCCC(CCc2ccc(F)cc2F)C1", "stereo": "configuration not stated", "A": 10.16, "B": "22.97 and 41.19"}
{"compound": "Cc1nc(NCCN2CCCC2=O)cc(C2CN(C)CCO2)n1", "stereo": "configuration not stated", "A": "-31.13 and -4.959", "B": -26.61}
{"compound": "NCc1ccc(Oc2cccc(Cl)c2Cl)cc1", "A": 32.08, "B": "6.826 and 36.16"}
{"compound": "O=C(NCc1ccccc1Cn1ccnc1)N1CCOCC1", "A": "-5.674 and -1.643", "B": -4.507}
{"compound": "[H][C@]12CC[C@]([H])(CN(Cc3cccnc3)C1)N(C(=O)CCn1cncn1)C2", "A": -1.641, "B": "6.291 and 28.6"}
{"compound": "CC(C)OCCOCc1cccc(NC(=O)NCC(=O)N(C)C)c1", "A": -16.22, "B": "-16.61 and 7.513"}
{"compound": "CC(C)CCNc1nnc(C(C)C)s1", "A": 44.14, "B": 9.35}
{"compound": "CCOCCCC(=O)NS(=O)(=O)c1ccc(C)s1", "A": -12.34, "B": 13.25}
{"compound": "Cc1csc(CN(C)C(=O)C2CCC(=O)N(CCN(C)C)C2)n1", "stereo": "configuration not stated", "A": 5.067, "B": 11.34}
{"compound": "CC(C(=O)N1CCc2ccccc21)N1CCc2cncnc2C1", "stereo": "configuration not stated", "A": -7.701, "B": -5.821}
{"compound": "CN1CCc2cc(C(CNS(=O)(=O)c3cccs3)N3CCCC3)ccc21", "stereo": "configuration not stated", "A": 3.999, "B": 0.915}
{"compound": "O=C(O)C(F)(F)F.[H][C@]12CCN(S(=O)(=O)c3ccccc3F)C[C@@]1([H])OCCN(C)C2", "A": 4.317, "B": "-2.457 and 1.581"}
{"compound": "CCC(C)Oc1ccc(CNCCc2c[nH]cn2)cc1Cl", "stereo": "configuration not stated", "A": 25.25, "B": 19.98}
{"compound": "O=C(NCc1csc(Br)c1)c1cnccn1", "A": 22.26, "B": 35.34}
{"compound": "CSc1ccccc1C(=O)C1CCCN(Cc2cc(C(C)C)[nH]n2)C1", "stereo": "configuration not stated", "A": 15.41, "B": 26.58}
{"compound": "c1ccc(-c2nc3c(c(NCc4nnc5n4CCC5)n2)CCNC3)cc1", "A": -5.454, "B": "3.645 and -11.33"}

2 of the entries, repeated:

{"compound": "CC(C(=O)N1CCc2ccccc21)N1CCc2cncnc2C1", "stereo": "configuration not stated", "A": -7.701, "B": -5.821}
{"compound": "CCC(C)Oc1ccc(CNCCc2c[nH]cn2)cc1Cl", "stereo": "configuration not stated", "A": 25.25, "B": 19.98}